From the supplement of paper PMC11732987, “Enantioselective OTUD7B fragment discovery through chemoproteomics screening and high-throughput optimisation” (Communications Chemistry, 2025)
Some of the results follow. The data scatter; read single values as rough.

Sequences of proteins named here, by UniProt entry; tags and fusion partners are left off. A change or cut given only in a name is not applied to a line headed by its entry. Residues count along the entry.
UniProt Q15024, 170-191: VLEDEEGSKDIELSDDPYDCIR
UniProt Q9NPI8: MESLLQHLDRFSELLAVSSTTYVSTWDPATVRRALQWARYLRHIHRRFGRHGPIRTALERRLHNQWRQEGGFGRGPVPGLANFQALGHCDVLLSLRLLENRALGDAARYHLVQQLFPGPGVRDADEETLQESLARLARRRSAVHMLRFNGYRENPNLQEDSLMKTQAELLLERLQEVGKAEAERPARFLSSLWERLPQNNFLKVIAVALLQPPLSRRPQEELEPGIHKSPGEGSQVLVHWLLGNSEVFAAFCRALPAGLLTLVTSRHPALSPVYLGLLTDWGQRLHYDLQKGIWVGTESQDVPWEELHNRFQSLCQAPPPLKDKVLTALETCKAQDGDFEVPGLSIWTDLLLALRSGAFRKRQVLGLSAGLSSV
UniProt Q9NVI1: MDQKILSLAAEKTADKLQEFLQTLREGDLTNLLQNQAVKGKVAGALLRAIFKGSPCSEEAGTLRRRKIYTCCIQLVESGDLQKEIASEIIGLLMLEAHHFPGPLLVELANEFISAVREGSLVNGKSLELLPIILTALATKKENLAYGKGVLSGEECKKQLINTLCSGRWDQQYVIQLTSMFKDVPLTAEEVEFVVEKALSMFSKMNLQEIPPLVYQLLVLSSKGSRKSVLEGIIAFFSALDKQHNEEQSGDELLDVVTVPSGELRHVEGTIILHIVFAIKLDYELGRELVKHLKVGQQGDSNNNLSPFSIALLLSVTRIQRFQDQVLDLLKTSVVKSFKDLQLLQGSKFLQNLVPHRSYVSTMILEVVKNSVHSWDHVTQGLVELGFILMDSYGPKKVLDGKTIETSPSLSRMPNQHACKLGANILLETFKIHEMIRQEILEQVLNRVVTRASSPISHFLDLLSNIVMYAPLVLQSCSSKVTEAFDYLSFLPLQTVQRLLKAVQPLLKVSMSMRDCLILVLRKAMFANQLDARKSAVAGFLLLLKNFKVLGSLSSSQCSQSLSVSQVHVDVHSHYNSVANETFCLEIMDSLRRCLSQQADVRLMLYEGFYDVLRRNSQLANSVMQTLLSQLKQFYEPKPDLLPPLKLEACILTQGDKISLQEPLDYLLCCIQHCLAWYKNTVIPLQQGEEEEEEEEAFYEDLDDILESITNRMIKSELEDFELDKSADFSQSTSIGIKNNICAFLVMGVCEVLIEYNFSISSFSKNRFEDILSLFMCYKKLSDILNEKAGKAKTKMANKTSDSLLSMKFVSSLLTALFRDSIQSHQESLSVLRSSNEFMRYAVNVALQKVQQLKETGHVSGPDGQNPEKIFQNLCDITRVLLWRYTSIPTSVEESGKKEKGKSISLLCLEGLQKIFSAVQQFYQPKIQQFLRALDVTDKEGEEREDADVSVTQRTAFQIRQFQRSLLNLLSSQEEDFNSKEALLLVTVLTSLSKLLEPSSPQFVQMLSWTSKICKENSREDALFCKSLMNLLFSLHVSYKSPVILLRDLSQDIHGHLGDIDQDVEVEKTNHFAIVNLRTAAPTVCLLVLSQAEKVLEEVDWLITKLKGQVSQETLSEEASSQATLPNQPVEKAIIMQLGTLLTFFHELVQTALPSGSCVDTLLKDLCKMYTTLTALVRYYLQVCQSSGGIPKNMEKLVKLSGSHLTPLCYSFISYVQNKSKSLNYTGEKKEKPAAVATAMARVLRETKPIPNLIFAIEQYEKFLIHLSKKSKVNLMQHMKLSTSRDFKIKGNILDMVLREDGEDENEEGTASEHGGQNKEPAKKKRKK
UniProt Q14241: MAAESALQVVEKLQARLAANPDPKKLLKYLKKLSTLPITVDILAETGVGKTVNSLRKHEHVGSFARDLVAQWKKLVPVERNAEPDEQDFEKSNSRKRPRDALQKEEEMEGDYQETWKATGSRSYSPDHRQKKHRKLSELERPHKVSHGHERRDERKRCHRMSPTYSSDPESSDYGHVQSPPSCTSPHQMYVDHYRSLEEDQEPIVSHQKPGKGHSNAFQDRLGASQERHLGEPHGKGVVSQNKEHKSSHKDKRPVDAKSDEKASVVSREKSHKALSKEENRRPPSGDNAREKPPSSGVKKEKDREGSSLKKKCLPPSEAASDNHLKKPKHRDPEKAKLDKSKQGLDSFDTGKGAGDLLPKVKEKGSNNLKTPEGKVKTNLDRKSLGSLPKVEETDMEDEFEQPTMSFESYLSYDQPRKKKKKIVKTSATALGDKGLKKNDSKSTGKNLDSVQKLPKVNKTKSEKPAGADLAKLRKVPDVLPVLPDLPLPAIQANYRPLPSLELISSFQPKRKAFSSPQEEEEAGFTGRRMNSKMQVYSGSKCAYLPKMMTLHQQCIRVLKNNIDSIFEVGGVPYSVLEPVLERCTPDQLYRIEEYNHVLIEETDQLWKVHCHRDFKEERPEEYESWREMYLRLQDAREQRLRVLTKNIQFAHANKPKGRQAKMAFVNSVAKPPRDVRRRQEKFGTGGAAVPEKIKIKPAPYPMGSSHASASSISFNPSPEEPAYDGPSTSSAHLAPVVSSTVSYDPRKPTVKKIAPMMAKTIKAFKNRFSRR
UniProt Q14674, 1355-1382: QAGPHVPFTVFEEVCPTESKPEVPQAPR
UniProt O95163: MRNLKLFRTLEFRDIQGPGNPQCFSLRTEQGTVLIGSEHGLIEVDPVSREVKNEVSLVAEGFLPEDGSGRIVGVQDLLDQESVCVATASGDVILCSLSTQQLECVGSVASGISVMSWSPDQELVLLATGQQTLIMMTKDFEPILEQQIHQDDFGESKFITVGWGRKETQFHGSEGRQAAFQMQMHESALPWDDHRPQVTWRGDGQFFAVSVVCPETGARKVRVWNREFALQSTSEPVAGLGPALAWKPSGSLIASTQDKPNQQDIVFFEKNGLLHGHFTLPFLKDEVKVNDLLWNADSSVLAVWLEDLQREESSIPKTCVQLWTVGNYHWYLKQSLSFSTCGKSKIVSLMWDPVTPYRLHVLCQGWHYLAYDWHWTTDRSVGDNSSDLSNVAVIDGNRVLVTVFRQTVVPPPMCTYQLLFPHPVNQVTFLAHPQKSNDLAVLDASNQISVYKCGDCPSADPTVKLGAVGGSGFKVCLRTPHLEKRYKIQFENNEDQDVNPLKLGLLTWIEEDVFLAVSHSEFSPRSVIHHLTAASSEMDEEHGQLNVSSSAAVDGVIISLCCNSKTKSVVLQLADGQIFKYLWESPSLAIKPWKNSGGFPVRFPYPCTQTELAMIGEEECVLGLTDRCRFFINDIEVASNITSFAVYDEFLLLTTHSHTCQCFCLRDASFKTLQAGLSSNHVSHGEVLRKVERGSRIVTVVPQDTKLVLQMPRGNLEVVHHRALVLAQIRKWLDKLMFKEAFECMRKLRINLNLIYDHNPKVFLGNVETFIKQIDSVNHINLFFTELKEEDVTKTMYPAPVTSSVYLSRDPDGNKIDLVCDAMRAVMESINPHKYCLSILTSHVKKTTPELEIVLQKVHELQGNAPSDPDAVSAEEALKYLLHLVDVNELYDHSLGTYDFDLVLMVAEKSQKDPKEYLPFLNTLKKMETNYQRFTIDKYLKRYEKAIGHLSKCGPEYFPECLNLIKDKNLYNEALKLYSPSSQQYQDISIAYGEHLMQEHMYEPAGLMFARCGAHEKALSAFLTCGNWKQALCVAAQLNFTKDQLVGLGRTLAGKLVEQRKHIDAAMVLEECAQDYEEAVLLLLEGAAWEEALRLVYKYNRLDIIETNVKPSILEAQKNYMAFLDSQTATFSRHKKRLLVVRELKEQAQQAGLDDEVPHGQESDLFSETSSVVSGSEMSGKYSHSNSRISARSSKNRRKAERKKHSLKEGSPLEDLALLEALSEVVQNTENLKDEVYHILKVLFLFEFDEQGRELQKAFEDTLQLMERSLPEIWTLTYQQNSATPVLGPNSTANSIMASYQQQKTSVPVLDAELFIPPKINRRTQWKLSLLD
UniProt Q9HC35: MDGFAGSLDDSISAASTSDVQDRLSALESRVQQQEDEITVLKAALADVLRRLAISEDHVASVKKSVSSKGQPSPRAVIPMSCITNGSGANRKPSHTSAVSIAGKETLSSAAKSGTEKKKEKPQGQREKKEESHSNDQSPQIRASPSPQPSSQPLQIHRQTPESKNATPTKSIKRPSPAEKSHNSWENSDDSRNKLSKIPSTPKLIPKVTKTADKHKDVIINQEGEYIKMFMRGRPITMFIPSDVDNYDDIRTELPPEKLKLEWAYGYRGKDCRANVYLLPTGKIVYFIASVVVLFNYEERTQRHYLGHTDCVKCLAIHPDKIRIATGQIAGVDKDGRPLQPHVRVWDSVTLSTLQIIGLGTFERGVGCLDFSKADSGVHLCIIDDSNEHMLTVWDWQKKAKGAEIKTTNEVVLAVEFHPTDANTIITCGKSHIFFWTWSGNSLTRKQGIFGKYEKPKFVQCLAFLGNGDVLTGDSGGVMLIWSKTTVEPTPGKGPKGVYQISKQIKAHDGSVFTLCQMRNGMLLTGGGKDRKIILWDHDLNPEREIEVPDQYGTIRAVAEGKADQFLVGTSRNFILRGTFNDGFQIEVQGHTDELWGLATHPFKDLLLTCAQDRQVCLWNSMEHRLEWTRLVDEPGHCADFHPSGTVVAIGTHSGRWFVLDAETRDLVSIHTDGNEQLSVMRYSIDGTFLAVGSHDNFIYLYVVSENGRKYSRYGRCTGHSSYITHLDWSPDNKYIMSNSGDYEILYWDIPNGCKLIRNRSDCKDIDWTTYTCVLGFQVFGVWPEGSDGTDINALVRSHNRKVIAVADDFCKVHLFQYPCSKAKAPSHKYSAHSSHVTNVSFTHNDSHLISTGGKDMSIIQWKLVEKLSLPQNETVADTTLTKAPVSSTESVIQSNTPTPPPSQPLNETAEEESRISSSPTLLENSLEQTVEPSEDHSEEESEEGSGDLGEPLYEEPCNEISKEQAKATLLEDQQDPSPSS
UniProt P55199: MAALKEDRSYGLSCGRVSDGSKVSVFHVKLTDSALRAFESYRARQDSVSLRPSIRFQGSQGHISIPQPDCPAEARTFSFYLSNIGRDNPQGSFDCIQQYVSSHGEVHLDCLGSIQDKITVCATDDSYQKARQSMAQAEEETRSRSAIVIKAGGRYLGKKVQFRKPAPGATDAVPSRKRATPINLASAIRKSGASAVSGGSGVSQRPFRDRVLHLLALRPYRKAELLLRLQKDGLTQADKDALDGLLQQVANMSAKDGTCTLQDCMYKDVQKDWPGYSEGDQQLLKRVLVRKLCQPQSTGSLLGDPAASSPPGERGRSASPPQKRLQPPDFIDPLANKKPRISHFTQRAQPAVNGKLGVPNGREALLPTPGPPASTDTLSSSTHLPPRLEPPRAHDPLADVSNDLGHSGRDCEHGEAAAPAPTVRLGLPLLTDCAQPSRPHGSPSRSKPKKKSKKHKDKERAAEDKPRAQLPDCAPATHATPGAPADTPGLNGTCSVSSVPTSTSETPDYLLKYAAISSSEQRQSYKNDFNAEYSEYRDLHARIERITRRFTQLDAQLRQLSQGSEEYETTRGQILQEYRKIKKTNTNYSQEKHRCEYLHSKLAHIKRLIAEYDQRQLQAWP
UniProt Q9UBU6, 75-102: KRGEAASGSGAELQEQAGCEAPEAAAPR
UniProt Q9NZ08: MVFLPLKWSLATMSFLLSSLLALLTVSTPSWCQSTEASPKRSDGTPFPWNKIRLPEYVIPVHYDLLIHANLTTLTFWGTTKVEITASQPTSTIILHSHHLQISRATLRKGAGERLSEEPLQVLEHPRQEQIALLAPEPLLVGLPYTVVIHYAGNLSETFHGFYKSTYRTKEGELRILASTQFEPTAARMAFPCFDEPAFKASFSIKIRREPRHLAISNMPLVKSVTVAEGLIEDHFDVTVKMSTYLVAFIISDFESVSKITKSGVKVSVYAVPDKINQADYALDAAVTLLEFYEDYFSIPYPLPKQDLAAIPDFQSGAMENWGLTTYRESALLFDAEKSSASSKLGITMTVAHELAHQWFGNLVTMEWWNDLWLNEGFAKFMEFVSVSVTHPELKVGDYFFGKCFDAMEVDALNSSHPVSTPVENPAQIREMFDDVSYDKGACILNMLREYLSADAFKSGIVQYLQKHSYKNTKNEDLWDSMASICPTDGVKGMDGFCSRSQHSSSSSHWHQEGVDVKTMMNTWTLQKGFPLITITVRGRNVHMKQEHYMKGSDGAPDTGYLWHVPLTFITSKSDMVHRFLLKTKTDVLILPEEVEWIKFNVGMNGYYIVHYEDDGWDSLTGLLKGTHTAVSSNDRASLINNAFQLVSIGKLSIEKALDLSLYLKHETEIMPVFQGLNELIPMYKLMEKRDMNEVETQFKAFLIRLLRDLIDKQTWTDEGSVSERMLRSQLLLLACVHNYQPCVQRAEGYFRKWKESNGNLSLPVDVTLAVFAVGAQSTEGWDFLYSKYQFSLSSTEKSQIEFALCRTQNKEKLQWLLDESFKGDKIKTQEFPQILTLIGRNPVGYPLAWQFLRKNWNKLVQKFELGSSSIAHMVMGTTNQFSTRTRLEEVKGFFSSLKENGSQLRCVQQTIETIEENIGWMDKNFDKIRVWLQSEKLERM
UniProt O94988, 430-451: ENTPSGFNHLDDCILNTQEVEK

Legend:
[1] = compound: ClCC(=O)N[C@@H]1CCCc2ccccc12; assay: log2 mean competition ratio of IA-DTB cysteine labelling (DMSO/compound) (log2 ratio); higher = stronger cysteine engagement by compound; conditions: treatment time: 4 h, cell line lysate: HEK293T
Protocol: (§1)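 IA-DTB competitive cysteine chemoproteomics in HEK293T RIPA lysate. Lysates were treated with compound 29 or 30 at 50 or 200 µM for 4 h, then IA-DTB (500 µM, 1 h), trypsin-digested, NeutrAvidin-enriched and analysed by diaPASEF. Competition ratio = intensity DMSO / intensity compound (n=4 treated, n=64 DMSO); binding: mean log2 CR ≥ 1 and p ≤ 0.05 plus QC filters. Target is the cysteine site.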

[2] = compound: ClCC(=O)N[C@H]1CCCc2ccccc12; assay: as above; conditions: treatment time: 4 h, cell line lysate: HEK293T
Protocol: as §1

Target	log2 mean competition ratio ([1]; 50 µM)	log2 mean competition ratio ([1]; 200 µM)	log2 mean competition ratio ([2]; 50 µM)	log2 mean competition ratio ([2]; 200 µM)
ENO3 C357	-0.248	0.0769	–	–
EXOSC7 C189 (UniProt Q15024)	-0.15	0.099	–	–
EPG5 C1538 (UniProt Q9HCE0)	-0.5	–	–	–
FANCF C332 (UniProt Q9NPI8)	–	-0.176	–	–
ESCO1 C580	0.353	0.136	–	–
ERICH1 C415 (UniProt Q86X53)	0.206	0.272	–	–
FANCI C650 (UniProt Q9NVI1)	-0.0714	-0.336	–	–
EPC1 C797 (UniProt Q9H2F5)	-0.048	-0.0729	–	–
EXOC7 C550 (UniProt Q9UPT5)	0.211	0.0722	–	–
FAM126A C300 (UniProt Q9BYI3)	-0.0928	-0.186	–	–
ELOA C339 (UniProt Q14241)	0.533	-0.222	–	–
ESCO1 C515	0.00772	-0.0375	–	–
FAHD2A C215 (UniProt Q96GK7)	0.119	-0.321	–	–
EXD2 C168 (UniProt Q9NVH0)	-0.141	0.144	–	–
EP400 C3158 (UniProt Q96L91)	-0.104	-0.0444	–	–
EXOC4 C100 (UniProt Q96A65)	-0.048	-0.176	–	–
ELP2 C746 (UniProt Q6IA86)	0.0781	-0.294	–	–
EMC8 C12 (UniProt O43402)	0.113	-0.0909	–	–
ERGIC3 C199 (UniProt Q9Y282)	0.355	0.0561	–	–
ELMO1 C411 (UniProt Q92556)	0.24	0.681	–	–

Target	log2 mean competition ratio ([1]; 50 µM)	log2 mean competition ratio ([1]; 200 µM)	log2 mean competition ratio ([2]; 50 µM)	log2 mean competition ratio ([2]; 200 µM)
ERBIN C464 (UniProt Q96RT1)	-0.139	0.0123	–	–
ERCC2 C588 (UniProt P18074)	-0.0691	-0.107	–	–
ESPL1 C1369 (UniProt Q14674)	-0.374	0.15	–	–
ETV6 C8 (UniProt P41212)	-0.203	-0.174	–	–
ELP4 C361 (UniProt Q96EB1)	0.0434	0.209	–	–
EXOC5 C295 (UniProt O00471)	-0.0224	-0.143	–	–
ELP1 C213 (UniProt O95163)	-0.12	-0.23	–	–
EML4 C311 (UniProt Q9HC35)	-0.0103	-0.345	–	–
ELL C595 (UniProt P55199)	0.169	0.288	–	–
EPB41L3 C124 (UniProt Q9Y2J2)	-0.0196	0.0956	–	–
EPC2 C626 (UniProt Q52LR7)	-0.487	0.017	–	–
FAM126B C7 (UniProt Q8IXS8)	0.219	0.519	–	–
FAM8A1 C93 (UniProt Q9UBU6)	0.0424	-0.0847	–	–
EXOSC10 C411 (UniProt Q01780)	0.0533	-0.252	–	–
FANCI C1085 (UniProt Q9NVI1)	0.374	-0.279	–	–
ERCC1 C274 (UniProt P07992)	0.101	-0.263	–	–
FAM120C C354 (UniProt Q9NX05)	0.0887	0.153	–	–
EPC1 C566 (UniProt Q9H2F5)	-0.0139	0.184	–	–
EVI5 C641 (UniProt O60447)	-0.25	0.225	–	–
FAM110B C248	0.155	-0.0944	–	–

Three entries from above in another layout.
Target,log2 mean competition ratio ([1]; 50 µM),log2 mean competition ratio ([1]; 200 µM),log2 mean competition ratio ([2]; 50 µM),log2 mean competition ratio ([2]; 200 µM)
EXOSC7 C189 (UniProt Q15024),-0.15,0.099,–,–
EPG5 C1538 (UniProt Q9HCE0),-0.5,–,–,–
FANCF C332 (UniProt Q9NPI8),–,-0.176,–,–

(list continues)

Target	log2 mean competition ratio ([1]; 50 µM)	log2 mean competition ratio ([1]; 200 µM)	log2 mean competition ratio ([2]; 50 µM)	log2 mean competition ratio ([2]; 200 µM)
EXOC6 C28 (UniProt Q8TAG9)	-0.331	0.00209	–	–
EPB41 C224	-0.411	0.13	-0.536	0.027
EP400 C1368 (UniProt Q96L91)	0.0584	-0.0502	–	–
FAM117B C244 (UniProt Q6P1L5)	0.134	0.0274	–	–
ENO1 C357	-0.343	0.226	–	–
EME1 C369 (UniProt Q96AY2)	0.273	-0.186	–	–
EXPH5 C1081	-0.21	0.17	–	–
FAM193A C292, A0A1B0GVL4	-0.711	-0.266	-0.27	-0.106
ERI3 C245	-0.0949	0.0143	–	–
ESCO1 C362	-0.231	0.182	–	–
FAM193A C106, A0A1B0GVL4	-0.132	0.468	-0.172	0.0662
FAM120C C720 (UniProt Q9NX05)	0.218	0.365	0.578	0.314
ERAP1 C193 (UniProt Q9NZ08)	-0.239	0.0698	–	–
ERCC6L C587 (UniProt Q2NKX8)	0.0425	0.0405	–	–
ERAP1 C806 (UniProt Q9NZ08)	0.27	-0.1	–	0.00923
ERCC6L C982 (UniProt Q2NKX8)	0.0398	-0.192	–	–
ERCC5 C1021 (UniProt P28715)	-0.0157	-0.0982	–	0.0942
FAM114A2 C438 (UniProt Q9NRY5)	-0.00482	-0.307	–	–
FAM13A C442 (UniProt O94988)	-0.125	0.45	–	-0.257
EML3 C615 (UniProt Q32P44)	-0.254	0.0745	–	-0.0981
